Data reported in article PMC10899406.
These are yes or no findings as the source states them, for the method shown. In cells and extracts the contact can be indirect. Some binding calls cover weakened binding; strength is not graded here. Blank lines part the entries; values can stand above or below the substance they belong to.

Sequences of proteins named here, by UniProt entry; tags and fusion partners are left off.
UniProt Q96S59: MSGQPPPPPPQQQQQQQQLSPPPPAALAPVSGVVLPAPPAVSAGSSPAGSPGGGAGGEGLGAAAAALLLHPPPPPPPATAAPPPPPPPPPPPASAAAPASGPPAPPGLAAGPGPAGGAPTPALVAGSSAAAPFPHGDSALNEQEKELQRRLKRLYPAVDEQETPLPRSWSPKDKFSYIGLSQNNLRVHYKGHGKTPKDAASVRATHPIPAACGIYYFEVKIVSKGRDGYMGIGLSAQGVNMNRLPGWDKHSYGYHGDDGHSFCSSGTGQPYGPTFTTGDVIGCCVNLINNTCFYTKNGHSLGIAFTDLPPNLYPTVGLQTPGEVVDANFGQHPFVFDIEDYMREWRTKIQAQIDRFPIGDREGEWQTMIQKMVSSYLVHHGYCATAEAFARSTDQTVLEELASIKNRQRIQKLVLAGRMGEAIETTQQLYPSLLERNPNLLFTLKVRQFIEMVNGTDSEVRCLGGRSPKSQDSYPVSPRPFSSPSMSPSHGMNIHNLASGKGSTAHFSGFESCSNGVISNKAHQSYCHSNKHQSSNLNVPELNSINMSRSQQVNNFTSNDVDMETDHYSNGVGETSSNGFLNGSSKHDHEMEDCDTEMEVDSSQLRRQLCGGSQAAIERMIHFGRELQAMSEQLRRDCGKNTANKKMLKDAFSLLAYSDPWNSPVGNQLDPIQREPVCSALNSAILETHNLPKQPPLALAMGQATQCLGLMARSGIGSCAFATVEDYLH
UniProt P38936: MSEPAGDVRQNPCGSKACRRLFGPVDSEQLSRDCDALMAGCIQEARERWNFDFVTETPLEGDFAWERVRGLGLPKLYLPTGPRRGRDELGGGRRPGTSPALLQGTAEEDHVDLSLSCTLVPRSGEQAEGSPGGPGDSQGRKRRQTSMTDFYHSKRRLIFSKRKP
UniProt P51784: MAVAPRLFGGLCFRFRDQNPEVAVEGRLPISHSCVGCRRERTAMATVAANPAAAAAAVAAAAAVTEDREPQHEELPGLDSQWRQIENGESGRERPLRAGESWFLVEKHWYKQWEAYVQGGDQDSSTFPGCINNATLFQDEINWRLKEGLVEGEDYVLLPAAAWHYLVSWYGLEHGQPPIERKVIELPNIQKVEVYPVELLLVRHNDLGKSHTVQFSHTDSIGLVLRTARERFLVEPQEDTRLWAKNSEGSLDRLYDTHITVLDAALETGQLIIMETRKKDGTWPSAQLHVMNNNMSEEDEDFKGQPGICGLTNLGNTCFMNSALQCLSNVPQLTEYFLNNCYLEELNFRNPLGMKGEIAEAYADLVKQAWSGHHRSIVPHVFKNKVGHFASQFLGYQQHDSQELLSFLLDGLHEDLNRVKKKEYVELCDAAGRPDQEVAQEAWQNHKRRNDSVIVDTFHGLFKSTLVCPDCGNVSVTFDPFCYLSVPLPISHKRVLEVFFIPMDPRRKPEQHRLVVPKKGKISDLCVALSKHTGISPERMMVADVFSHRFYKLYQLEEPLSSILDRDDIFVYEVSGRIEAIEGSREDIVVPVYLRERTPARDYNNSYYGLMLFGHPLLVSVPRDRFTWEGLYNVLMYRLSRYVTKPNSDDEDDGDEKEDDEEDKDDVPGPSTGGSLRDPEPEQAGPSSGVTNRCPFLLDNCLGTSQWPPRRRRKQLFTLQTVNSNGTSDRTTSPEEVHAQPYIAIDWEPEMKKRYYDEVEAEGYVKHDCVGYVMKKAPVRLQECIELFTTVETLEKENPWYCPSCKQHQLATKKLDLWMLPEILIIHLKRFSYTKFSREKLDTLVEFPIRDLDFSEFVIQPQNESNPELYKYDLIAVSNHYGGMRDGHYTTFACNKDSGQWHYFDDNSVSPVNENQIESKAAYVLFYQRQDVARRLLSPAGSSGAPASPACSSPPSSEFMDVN

Experiments:
Flag-RanBPM [1] = biological target: Flag-RanBPM (UniProt Q96S59); assay: co-IP; sequential immunoprecipitation: HEK293T co-transfected with Flag-RanBPM, HA-USP11 and Myc-p21, MG132; first anti-Flag M2 agarose and elution with Flag peptides, then anti-Myc or control IgG
Flag-RanBPM [2] = biological target: Flag-RanBPM (UniProt Q96S59); assay: co-IP; HEK293T cells transfected with Flag-RanBPM and/or Myc-p21; precipitation with anti-Flag or anti-Myc antibody
[3] = biological target: p21 (endogenous, A549 cells) (human (endogenous in A549)) (UniProt P38936); assay: co-IP; endogenous proteins of A549 cell lysates precipitated with anti-p21 or anti-RanBPM antibody, isotype control IgG as control; also after 5 uM Etop or 0.5 uM Dox for 8 h (Fig. 6G-H), and after transfection of RanBPM plasmid or RanBPM siRNAs and MG132 for 6 h (Fig. 4B-C)
[4] = biological target: RanBPM (endogenous, A549 cells) (human (endogenous in A549)) (UniProt Q96S59); assay: as above
Myc-p21 = Myc-p21 (UniProt P38936); assay: co-IP; sequential immunoprecipitation: HEK293T co-transfected with Flag-RanBPM, HA-USP11 and Myc-p21, MG132; first anti-Flag M2 agarose and elution with Flag peptides, then anti-Myc or control IgG

- binding (Flag-RanBPM [1]): binds
- binding (Flag-RanBPM [2]): binds
Substance: Myc-p21 (from UniProt P38936 1-164)

- binding [3]: binds
Substance: USP11 (endogenous, A549 cells) (from UniProt P51784 1-963) (enzyme)

- binding [4]: binds
Substance: p21 (endogenous, A549 cells) (from UniProt P38936 1-164)

- binding (Myc-p21): binds
- binding (Flag-RanBPM [1]): binds
Substance: HA-USP11 (from UniProt P51784 1-963) (enzyme)
